The list shows a part of the results.
The sequences below were run against OsWRKY34 (Oryza sativa, UniProt Q0JBA9 1-250) (assay: protein-binding microarray (RPBM); PBS, 2% BSA, 51.3 ng/ul salmon testes DNA, 50 uM zinc acetate, 200 nM TF, 25 C, 1 h; high values mean tight binding). Conditions: protein: recombinant; tags: N-terminal polyhistidine and DsRed monomer fusion (pET32a); label: CyDye5-dUTP incorporated in the synthesized complementary strand; 3' TTTTT single-stranded linker to array surface; dsDNA, one strand shown.
Summary of the method: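 For the binding signal, per-feature fluorescence intensity was read in arbitrary units on an Axon 4000B scanner. Before scanning, a 2% BSA-blocked custom Agilent array made double-stranded with Cy5-dUTP was washed after 1 h at 25 °C with 200 nM protein and 50 µM zinc acetate. The proteins were Ni–NTA-purified transcription factors with N-terminal polyhistidine and DsRed fusions, expressed in E. coli BL21-CodonPlus.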

Protein sequences, listed by entry. Tags and fused reporters are not part of them.
UniProt Q0JBA9, entry or part of it: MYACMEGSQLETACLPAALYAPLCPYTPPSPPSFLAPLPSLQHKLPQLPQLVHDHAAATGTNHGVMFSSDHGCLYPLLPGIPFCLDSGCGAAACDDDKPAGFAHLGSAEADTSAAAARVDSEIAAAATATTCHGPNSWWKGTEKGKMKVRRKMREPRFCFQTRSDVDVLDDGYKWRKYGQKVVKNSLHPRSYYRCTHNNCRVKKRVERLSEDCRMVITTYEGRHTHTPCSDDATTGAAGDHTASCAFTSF

Sequence | binding signal
CCACCCTATATCACTCGAGTACTTGCCCATCAAATATATTCGGAGTCACCTAGTGCAG | 9350 fluorescence intensity (a.u.)
TGTGGTGGTGGTGGGAGGCAGCCGCGGCTGCTGCTGATGCCGGAGTCACCTAGTGCAG | 13200 fluorescence intensity (a.u.)
CCCTCATCACACCTGCCCGCCAATCTACAACAATGCACACCGGAGTCACCTAGTGCAG | 9470 fluorescence intensity (a.u.)
TTGTTGTAGTATTTTATTTGTATTTTCACATTTTTAGGGACGGAGTCACCTAGTGCAG | 9260 fluorescence intensity (a.u.)
TAAGTATTACTCTATTCGTTATACTATAGTATTATACTATCGGAGTCACCTAGTGCAG | 8250 fluorescence intensity (a.u.)
AGCGGTGTGAGGTGTTGGCACTTGGTCTGGGGCTCGGGGACGGAGTCACCTAGTGCAG | 8910 fluorescence intensity (a.u.)
AAACGTCCAAATCACACTCATCCTTCCATACTGTATAAATCGGAGTCACCTAGTGCAG | 8480 fluorescence intensity (a.u.)
CTGCGCCGATCCCCATCCATCCATTGCGCGAGCGGGCGGGCGGAGTCACCTAGTGCAG | 8520 fluorescence intensity (a.u.)
TGTGCGCGGATAACTTACTCAGTACTTTCATGTCATAATTCGGAGTCACCTAGTGCAG | 9480 fluorescence intensity (a.u.)
GCTGAGCTGATTGCTTGATTCCTCGCTCGTTCAATCTACTCGGAGTCACCTAGTGCAG | 9730 fluorescence intensity (a.u.)
CCATACCAACCCATACTCTTTTTATTAGACACGTCGTATTCGGAGTCACCTAGTGCAG | 9090 fluorescence intensity (a.u.)
CTCACCGTACACTCCACCGCAGCTCGGTCATCCTTAGTCGCGGAGTCACCTAGTGCAG | 12700 fluorescence intensity (a.u.)
GATAGGTCTCGTTAATTGTTTCACTTCCGCCGATCCTTATCGGAGTCACCTAGTGCAG | 10900 fluorescence intensity (a.u.)
TTTTTTTCTTAGATTTGTACACTACTTTATGTCTCACACTCGGAGTCACCTAGTGCAG | 9520 fluorescence intensity (a.u.)
AGCGAGCGACGGGCGGGGCGGAGCGGGGCGGGGCTGCATTCGGAGTCACCTAGTGCAG | 16700 fluorescence intensity (a.u.)
AATTCTTTTTCTTCCGTTTGAAAACTTTACTACACATGCACGGAGTCACCTAGTGCAG | 9480 fluorescence intensity (a.u.)
CTCCACCGCCCGCCCGCCCGCTGCACGCTCGCGGCCGCTCCGGAGTCACCTAGTGCAG | 10000 fluorescence intensity (a.u.)
GTGGGTGGGCCGAATCCTTTTGTAAGAGGAGATCAGTAAGCGGAGTCACCTAGTGCAG | 10100 fluorescence intensity (a.u.)
TTACAAGATGCGGTGAAGAGGTGGGTATTTGTCCAGAAGCCGGAGTCACCTAGTGCAG | 8770 fluorescence intensity (a.u.)
GATAATATGGTCTCTAATCATTAATGTATCTAAATATTTTCGGAGTCACCTAGTGCAG | 9730 fluorescence intensity (a.u.)
CGCTCGGCGGTGAGGTGGAGGTGGAGGTGGGTGGGAGATGCGGAGTCACCTAGTGCAG | 12900 fluorescence intensity (a.u.)

Sequence | binding signal
TAGTAATGTTCCGCTAGTTTCTCTCTCTTAGAGCGCATGTCGGAGTCACCTAGTGCAG | 9040 fluorescence intensity (a.u.)
GCCGGCTGCCCCATCCGCTTCCTCTCTTTTATTTTCTCATCGGAGTCACCTAGTGCAG | 8330 fluorescence intensity (a.u.)
CCTCTTCTCTTGCGTCCCATTATCACCTCTCCACGCCGATCGGAGTCACCTAGTGCAG | 8140 fluorescence intensity (a.u.)
TATTATCGCTCTTTTCTTTTTATTATTTTTTCATAAGTACCGGAGTCACCTAGTGCAG | 9630 fluorescence intensity (a.u.)
ACCAAATTTCATTAGCAAGCAGCTGTTCTGTCGCTTCCGTCGGAGTCACCTAGTGCAG | 8060 fluorescence intensity (a.u.)
CCTTACCGTACAAGGGAGGAGGAGGTGGTGGTGGTGGAGGCGGAGTCACCTAGTGCAG | 13000 fluorescence intensity (a.u.)
GAGTAGGATGGGGTTTGATTTTGGGGTTCGTGGGGTCGAGCGGAGTCACCTAGTGCAG | 17100 fluorescence intensity (a.u.)
GATATGATTCGTTTTTCTTTTTGTTTTTTGTCTGCAGGGGCGGAGTCACCTAGTGCAG | 12700 fluorescence intensity (a.u.)
TTTCTTTTCCCATTGACTTCGTGTGGTCGGGGAGGCGCGGCGGAGTCACCTAGTGCAG | 9830 fluorescence intensity (a.u.)
TAGTTTTCCTTGTGGGTTTGGGATCTCATCGAGGCGGCGGCGGAGTCACCTAGTGCAG | 8370 fluorescence intensity (a.u.)
TGTGTGCCGTGTGTTGCCTTGTCCGGGAAAGATGGAAATTCGGAGTCACCTAGTGCAG | 9040 fluorescence intensity (a.u.)
ATTCTTCATTCTTTTTGTGTGTGTTTCAGTGTGTTTGTTTCGGAGTCACCTAGTGCAG | 15800 fluorescence intensity (a.u.)
ATCTCTAGCTGCACATCGATCGATCATATCCACAATTTAACGGAGTCACCTAGTGCAG | 9520 fluorescence intensity (a.u.)
TTGTTTGCGCTATTTGACCACTTGTCTTATTAAAAAAATTCGGAGTCACCTAGTGCAG | 8030 fluorescence intensity (a.u.)
AACCCCGCATCCCATTCCCGCGGGCCTCTCGGCTGCTTCCCGGAGTCACCTAGTGCAG | 9070 fluorescence intensity (a.u.)
TTCATGGAGTCTACTACTCTACTCCCTCTATTTTCAAATACGGAGTCACCTAGTGCAG | 9010 fluorescence intensity (a.u.)
TATTGTTGGTTGTCCCATTTGATCGAACTGCACAAACTATCGGAGTCACCTAGTGCAG | 9580 fluorescence intensity (a.u.)
ACGCTAGCATGTGGAGCTCACGTGGGTCCCACGCTGACTCCGGAGTCACCTAGTGCAG | 8200 fluorescence intensity (a.u.)
AGTACTAGGATATGTCGCATCTGGTGCCAGATTTGTTTTTCGGAGTCACCTAGTGCAG | 9370 fluorescence intensity (a.u.)
TAGCTTCTTCGGATGTGAACCATCACTCCGGCTCAACAACCGGAGTCACCTAGTGCAG | 8750 fluorescence intensity (a.u.)
AATTCTCTATCGACACCTACATTATTGACAAAAGCATCTCCGGAGTCACCTAGTGCAG | 9420 fluorescence intensity (a.u.)

Another view of part of the listing above:
Sequence,binding signal
TTGTTGTAGTATTTTATTTGTATTTTCACATTTTTAGGGACGGAGTCACCTAGTGCAG,9260 fluorescence intensity (a.u.)
TAAGTATTACTCTATTCGTTATACTATAGTATTATACTATCGGAGTCACCTAGTGCAG,8250 fluorescence intensity (a.u.)
